Experimental data taken from article doi:10.1101/2024.05.06.590709 (bioRxiv, 2024).
Like-named read-outs stand apart in the source and are kept apart here. Results are given in words; binding and its absence hold for the method and conditions named. For some of these results: In cells and extracts the contact can be indirect. Some entries that bind do so weakly or less than the wild type. For some of these results: Where a sequence is shown, tags or fusion partners need not be part of it.

Sequences of proteins named here, by UniProt entry; tags and fusion partners are left off.
UniProt P47996: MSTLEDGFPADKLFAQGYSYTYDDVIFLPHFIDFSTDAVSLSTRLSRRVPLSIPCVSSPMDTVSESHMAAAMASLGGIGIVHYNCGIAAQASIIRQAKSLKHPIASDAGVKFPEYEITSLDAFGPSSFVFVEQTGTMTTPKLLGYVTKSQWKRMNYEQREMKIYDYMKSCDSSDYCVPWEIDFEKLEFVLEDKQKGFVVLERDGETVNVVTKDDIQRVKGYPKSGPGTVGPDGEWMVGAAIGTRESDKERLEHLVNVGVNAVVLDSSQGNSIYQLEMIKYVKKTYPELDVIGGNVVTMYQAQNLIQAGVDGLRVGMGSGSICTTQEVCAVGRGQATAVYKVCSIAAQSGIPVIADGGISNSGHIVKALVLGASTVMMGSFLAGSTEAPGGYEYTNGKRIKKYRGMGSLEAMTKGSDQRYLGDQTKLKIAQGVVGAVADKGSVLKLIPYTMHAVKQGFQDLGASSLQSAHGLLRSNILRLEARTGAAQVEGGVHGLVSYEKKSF

Columns and labels:
[1] = biological target: T1, 6XHis-GST-ATG8A (Arabidopsis thaliana) (UniProt Q8LEM4); experiment: pull-down
T1 sequence: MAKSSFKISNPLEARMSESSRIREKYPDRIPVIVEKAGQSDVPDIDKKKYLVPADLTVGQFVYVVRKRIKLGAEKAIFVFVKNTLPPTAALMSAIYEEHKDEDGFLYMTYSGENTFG

[2] = biological target: T2, mCherry-ATG8A (Arabidopsis thaliana) (UniProt Q8LEM4); experiment: co-IP
T2 sequence: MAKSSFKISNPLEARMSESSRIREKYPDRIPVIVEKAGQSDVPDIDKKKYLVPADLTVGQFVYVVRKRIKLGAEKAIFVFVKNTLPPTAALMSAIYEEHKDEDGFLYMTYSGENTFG

[3] = biological target: T1, 6XHis-GST-ATG8A (Arabidopsis thaliana); experiment: pull-down; remark: listed apart in the source

Question: For “His-MBP-IMPDH1 (from UniProt P47996 1-503) (enzyme)”, which binding [1] is on record?
Answer: binds

Question: Which binding [1] does the source give for “NIT1^AIM1m (from UniProt P32961 1-346) (enzyme)” here?
Answer: binds

Question: How did the binding [2] turn out when “IMPDH1-Clover (from UniProt P47996 1-503) (enzyme)” was run?
Answer: binds

B1: NIT1 WT (purified recombinant AtNIT1) (enzyme)
chain: MSSTKDMSTVQNATPFNGVAPSTTVRVTIVQSSTVYNDTPATIDKAEKYIVEAASKGAELVLFPEGFIGGYPRGFRFGLAVGVHNEEGRDEFRKYHASAIHVPGPEVARLADVARKNHVYLVMGAIEKEGYTLYCTVLFFSPQGQFLGKHRKLMPTSLERCIWGQGDGSTIPVYDTPIGKLGAAICWENRMPLYRTALYAKGIELYCAPTADGSKEWQSSMLHIAIEGGCFVLSACQFCQRKHFPDHPDYLFTDWYDDKEHDSIVSQGGSVIISPLGQVLAGPNFESEGLVTADIDLGDIARAKLYFDSVGHYSRPDVLHLTVNEHPRKSVTFVTKVEKAEDDSNK
modifications: RED-NHS 2nd Generation dye (in the MST only)
Question: For B1, which binding [3] is on record?
Answer: binds
